Reference: PubChem BioAssay (NCATS)
The list shows a part of the results. The main result of the screen is listed elsewhere. These columns were measured beside it and carry no call. The list favours compounds with an active or inconclusive main result. For part of these data: Words in brackets tell the shape of the fitted curve; partial curves, single points and poor fits give uncertain potencies.

Legend:
[1] = qHTS Assay for Modulators of Human Peripheral Myelin Protein 22 (PMP22) Expression/Activity (AID 1967); settings: Cell-based PMP22 reporter, dual-color luciferase ratio
Method in brief: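 Mouse MSC80 Schwann cells carrying Pmp22 promoter–green click beetle luciferase plus EF-alpha–red luciferase control, dosed 24 h at 37 °C. Dual-filter luminescence, overlap-corrected; %Activity from green/red ratio normalised to untreated cells, concentration-response curves fitted.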

[2] = qHTS Validation Assay to Find Inhibitors of Chronic Active B-Cell Receptor Signaling (AID 485345); settings: ABC-DLBCL cells, chronic BCR signaling reporter; measured here: CBG/CBR ratio read-out
Method in brief: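 TMD8 ABC-DLBCL cells stably carrying doxycycline-inducible IkappaBalpha–green luciferase fusion plus unfused red luciferase; compounds 46 uM to 3 nM, 4 h at 37C with doxycycline. Corrected green/red luminescence ratio normalized to 10 uM MG-132 and basal cell wells; curves fitted.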

[3] = Nrf2 qHTS screen for inhibitors: Validation (AID 493153); settings: A549 ARE-Fluc reporter, 18-24 h; AC50: CellTiter-Fluor fluorescence read, measured here: cytotoxicity CellTiter-Fluor AC50; viability change: measured here: cytotoxicity max response
Method in brief: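 Dose-response validation uses reporter A549 cells with firefly luciferase under an antioxidant response element. Compounds stay on cells 18-24 h at 37°C, and luminescence indicates Nrf2-driven transcription.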

[4] = S16 Schwann cell PMP22 intronic element beta-lactamase assay (AID 624044); settings: S16 rat Schwann cells, PMP22 element beta-lactamase FRET, 24 h; measured here: 460 nm blue channel
Method in brief: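 Rat S16 Schwann cells with beta-Lac driven by a PMP22 intronic element, compound-treated 24 h at 37 °C. LiveBLAzer FRET B/G read: 460 nm normalized to potassium clavulanate vs DMSO; 535 nm FRET as viability; concentration-effect curves classified.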

[5] = qHTS for identification of novel therapeutic agents for treatment of microphthalmiaassociated transcription factor (MiT) renal cell carcinoma (RCC) (AID 1963991); settings: CellTiter-Glo, 48 h; for z-score: stronger effect = lower value
Method in brief: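 Three TFE3-fusion RCC lines (UOK109, UOK124, UOK145), 500 cells/well in complete medium, were treated with MIPE 4.0 compounds for 48 hours at 37 C. Viability was by CellTiter-Glo luminescence, normalized to DMSO (100%) and empty wells (0%); curves fitted over 11 concentrations.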

[6] = TFE3-RCC UOK109 viability, measured here: UOK109 Z-AUC
[7] = TFE3-RCC viability, measured here: UOK124 Z-AUC
[8] = TFE3-RCC viability, measured here: UOK124 cell viability
[9] = TFE3-RCC viability, measured here: UOK145 Z-AUC
[10] = TFE3-RCC viability, measured here: UOK145 cell viability

Compound | AC50 ([1]; measured here: green reporter channel AC50, mouse Pmp22 promoter in mouse Schwann cells) | AC50 ([1]; measured here: red reporter channel AC50, EF-alpha promoter control reporter in MSC80 mouse Schwann cells) | AC50 [2] | viability change [3] | AC50 [4] | z-score [5, 6] | z-score [5, 7] | AC50 [5, 8] | z-score [5, 9] | AC50 [5, 10]
CCCNCC(O)COc1ccccc1C(=O)CCc1ccccc1 (stereo unspecified) | 42.6 µM [falling, partial curve] | 47.8 µM [falling, partial curve] | 18.4 µM [falling, single point] | -3.93% | 9.99 µM [falling, partial curve, poor fit] | -0.02 | 0.345 | 29.6 µM [falling, partial curve] | 0.0429 | 20.9 µM [falling, single point]
CN1CCC(COc2cnc(-c3cccc(Cn4nc(-c5cccc(C#N)c5)ccc4=O)c3)nc2)CC1 | – | – | – | – | – | -1.16 | 0.306 | 8.33 µM [falling, single point] | -1.7 | 0.469 µM [falling, full curve]
Nc1ccn([C@@H]2O[C@H](CO)[C@H](O)C2(F)F)c(=O)n1 | – | – | – | – | 0.707 µM [falling, full curve] | 0.209 | -0.538 | 0.132 µM [falling, full curve] | -1.81 | 0.0332 µM [falling, full curve]
